Plain letter strings leave the end groups untold.
Experiment: peptide made by a vendor
Conditions: whole synthesis

## KGGSCSGGK
  purity (crude or final not stated): 97.49%
